Measurements reported in article PMC12089348.
Results are given in words; binding and its absence hold for the method and conditions named. In cells and extracts the contact can be indirect. Binding can be weak; no strength is given.

Protein sequences, listed by entry. Tags and fused reporters are not part of them. Lines headed by an entry give the natural chain unless they say otherwise; changes in a name come on top.
UniProt P35222: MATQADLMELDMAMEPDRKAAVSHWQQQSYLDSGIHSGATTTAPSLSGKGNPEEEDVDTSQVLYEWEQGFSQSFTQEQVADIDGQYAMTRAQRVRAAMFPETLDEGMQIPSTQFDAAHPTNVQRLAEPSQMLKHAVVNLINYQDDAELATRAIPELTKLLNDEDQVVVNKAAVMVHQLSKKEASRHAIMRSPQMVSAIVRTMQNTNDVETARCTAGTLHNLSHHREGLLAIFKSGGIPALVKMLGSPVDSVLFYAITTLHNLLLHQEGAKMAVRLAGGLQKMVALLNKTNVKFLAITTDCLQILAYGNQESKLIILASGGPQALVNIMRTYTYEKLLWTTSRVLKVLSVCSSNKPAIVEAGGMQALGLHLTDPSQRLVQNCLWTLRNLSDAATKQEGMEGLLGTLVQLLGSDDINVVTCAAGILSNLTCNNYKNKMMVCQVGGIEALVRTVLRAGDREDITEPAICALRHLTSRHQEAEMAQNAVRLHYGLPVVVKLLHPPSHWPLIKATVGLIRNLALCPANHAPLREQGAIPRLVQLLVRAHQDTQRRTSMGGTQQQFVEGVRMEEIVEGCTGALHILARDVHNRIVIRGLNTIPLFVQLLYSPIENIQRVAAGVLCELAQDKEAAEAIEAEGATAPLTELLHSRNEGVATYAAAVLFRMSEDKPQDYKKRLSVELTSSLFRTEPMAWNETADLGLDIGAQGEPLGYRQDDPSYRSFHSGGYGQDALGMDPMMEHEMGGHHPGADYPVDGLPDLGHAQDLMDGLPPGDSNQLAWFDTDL

Columns and labels:
[1] = target: endogenous β-catenin (human (endogenous in HEK293T)) (UniProt P35222); assay: co-IP; lysates of overnight serum-starved HEK293T cells transiently expressing V5-tagged FBXW11; endogenous β-catenin immunoprecipitated with anti-β-catenin antibody cross-linked to Protein G Sepharose (2 h, 4 °C); IP buffer 25 mM Tris-HCl pH 7.4, 1% Triton X-100, 2 mM EDTA, 150 mM NaCl; Western blot
[2] = target: Flag-tagged β-catenin^I35T (human) (UniProt P35222); assay: co-IP; lysates of overnight serum-starved HEK293T cells transiently co-expressing V5-tagged FBXW11 and Flag-tagged β-catenin; immunoprecipitated with anti-Flag or anti-V5 antibody cross-linked to Protein G Sepharose (2 h, 4 °C); IP buffer 25 mM Tris-HCl pH 7.4, 1% Triton X-100, 2 mM EDTA, 150 mM NaCl; Western blot
[3] = target: Flag-tagged β-catenin^WT (human) (UniProt P35222); assay: as above

Measured: binding

V5-tagged FBXW11^WT (from UniProt E5RGC1)
binds: all assays above
